Reference: patent publication US8247372B2 (University of Southampton, priority 2006, dated 2012)

Assay: general procedure: solution-phase peptide synthesis; DMAP (acylation with 3); MNBA/DMAP (macrolactonisation)
Conditions: coupling step

Substance	step yield [%]
3-[(R)-2-[(S)-1-((1R,2S)-3-allyloxycarbonyl-2-hydroxy-1-isopropyl-propylcarbamoyl)-2-tritylsulfanyl-ethylcarbamoyl]-2-((E)-(S)-3-hydroxy-7-tritylsulfanyl-hept-4-enoylamino)-ethyl]-indole-1-carboxylic acid tert-butyl ester	58
(3S,4R)-3-Hydroxy-4-{2-[(R)-2-((Z)-(S)-3-hydroxy-7-tritylsulfanyl-hept-4-enoylamino)-3-phenyl-propionylamino]-3-tritylsulfanyl-propionylamino}-5-methyl-hexanoic acid allyl ester	55
(3S,4R)-3-hydroxy-4-{(S)-2-[(R)-2-((E)-(R)-3-hydroxy-7-tritylsulfanyl-hept-4-enoylamino)-4-methyl-pentanoylamino]-3-tritylsulfanyl-propionylamino}-5-methyl-hexanoic acid allyl ester	67
(3S,4R)-3-hydroxy-4{(S)-2-[(R)-2-((E)-(S)-3-hydroxy-7-tritylsulfanyl-hept-4-enoylamino)-3-phenyl-propionylamino]-3-tritylsulfanyl-propionylamino}-5-phenyl-pentanoic acid allyl ester	68
(3S,4R)-3-hydroxy-4{(S)-2-[(R)-2-((E)-(S)-3-hydroxy-7-tritylsulfanyl-hept-4-enoylamino)-propionylamino]-3-tritylsulfanyl-propionylamino}-5-phenyl-pentanoic acid allyl ester	72

Same assay, conditions: cyclisation step

Substance	cyclisation yield [%]
3-[(2S,6R,9S,12R,13S)-13-hydroxy-12-isopropyl-4,7,10,15-tetraoxo-2-((E)-4-tritylsulfanyl-but-1-enyl)-9-tritylsulfanylmethyl-1-oxa-5,8,11-triaza-cyclopentadec-6-ylmethyl]-indole-1-carboxylic acid tert-butyl ester	55
(2S,6R,9 S,12R,13R)-13-Hydroxy-6-isobutyl-12-isopropyl-2-((E)-4-tritylsulfanyl-but-1-enyl)-9-tritylsulfanylmethyl-1-oxa-5,8,11-triaza-cyclopentadecane-4,7,10,15-tetraone	47
(2S,6R,9S,12R,13S)-6,12-dibenzyl-13-hydroxy-2-((E)-4-tritylsulfanyl-but-1-enyl)-9-tritylsulfanyl methyl-1-oxa-5,8,11-triaza-cyclopentadecane-4,7,10,15-tetraone	38
(2S,6R,9S,12R,13S)-12-benzyl-13-hydroxy-6-methyl-2-((E)-4-tritylsulfanyl-but-1-enyl)-9-tritylsulfanylmethyl-1-oxa-5,8,11-triaza-cyclopentadecane-4,7,10,15-tetraone	42
(3R,7S,10S,13R,14S)-7-benzyl-14-hydroxy-13-isopropyl-3-((E)-4-tritylsulfanyl-but-1-enyl)-10-tritylsulfanylmethyl-1,2-dioxa-4,9,12-triaza-cyclohexadecane-5,8,11,16-tetraone	58

Same assay, conditions: late stage modification step

Substance	step yield [%]
3-[(R)-2-[(S)-1-((1R,2S)-3-carboxy-2-hydroxy-1-isopropyl-propylcarbamoyl)-2-tritylsulfanyl-ethylcarbamoyl]-2-((E)-(S)-3-hydroxy-7-tritylsulfanyl-hept-4-enoylamino)-ethyl]-indole-1-carboxylic acid tert-butyl ester	70
(3S,4R)-3-Hydroxy-4-{(S)-2-[(R)-2-((E)-(R)-3-hydroxy-7-tritylsulfanyl-hept-4-enoylamino)-4-methyl-pentanoylamino]-3-tritylsulfanyl-propionylamino}-5-methyl-hexanoic acid	63
(3S,4R)-3-hydroxy-4-((S)-2-{(S)-2-[((E)-(R)-1-hydroxy-5-tritylsulfanyl-pent-2-enylcarbamoyl)-methyl]-3-phenyl-propionylamino}-3-tritylsulfanyl-propionylamino)-5-methyl-hexanoic acid	37
(3S,4R)-3-hydroxy-4{(S)-2-[(R)-2-((E)-(S)-3-hydroxy-7-tritylsulfanyl-hept-4-enoylamino)-3-phenyl-propionylamino]-3-tritylsulfanyl-propionylamino}-5-phenyl-pentanoic acid	69
(3S,4R)-3-hydroxy-4{(S)-2-[(R)-2-((E)-(S)-3-hydroxy-7-tritylsulfanyl-hept-4-enoylamino)-propionylamino]-3-tritylsulfanyl-propionylamino}-5-phenyl-pentanoic acid	61

Same assay, conditions: oxidative folding step

Substance	oxidative folding yield [%]
3-((E)-(1S,5S,6R,9 S,20R)-5-Hydroxy-6-isopropyl-3,8,18,21-tetraoxo-2-oxa-11,12-dithia-7,19,22-triaza-bicyclo[7.7.6]docos-15-en-20-ylmethyl)-indole-1-carboxylic acid tert-butyl ester	46
(E)-(1R,6S,7R,10S,21S)-21-benzyl-6-hydroxy-7-isopropyl-2,3-dioxa-12,13-dithia-8,18,23-triaza-bicyclo[8.7.6]tricos-16-ene-4,9,19,22-tetraone	68
(E)-(1S,5R,6R,9S,20R)-5-Hydroxy-20-isobutyl-6-isopropyl-2-oxa-11,12-dithia-7,19,22-triaza-bicyclo[7.7.6]docos-15-ene-3,8,18,21-tetraone	82
